Our source for the binding values is publication doi:10.1101/2025.10.06.680735, “JMJD1B-mediated FEN1 demethylation allows timely switching of Okazaki fragment maturation core enzymes to avoid mutagenic flap ligation by PARP1-LIG3” (bioRxiv, 2025).

Sequences of proteins named here, by UniProt entry; tags and fusion partners are left off.
UniProt P39748: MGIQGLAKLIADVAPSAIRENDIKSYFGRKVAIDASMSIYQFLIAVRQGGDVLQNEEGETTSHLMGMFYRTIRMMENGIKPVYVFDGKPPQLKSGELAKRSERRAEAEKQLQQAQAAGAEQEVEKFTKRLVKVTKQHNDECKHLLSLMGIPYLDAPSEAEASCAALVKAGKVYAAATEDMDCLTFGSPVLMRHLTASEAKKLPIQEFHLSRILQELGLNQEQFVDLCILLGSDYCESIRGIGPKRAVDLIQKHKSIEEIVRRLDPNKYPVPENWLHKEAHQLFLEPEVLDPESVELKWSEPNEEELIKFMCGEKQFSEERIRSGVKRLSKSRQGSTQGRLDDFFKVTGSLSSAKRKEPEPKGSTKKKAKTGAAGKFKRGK
UniProt P17918: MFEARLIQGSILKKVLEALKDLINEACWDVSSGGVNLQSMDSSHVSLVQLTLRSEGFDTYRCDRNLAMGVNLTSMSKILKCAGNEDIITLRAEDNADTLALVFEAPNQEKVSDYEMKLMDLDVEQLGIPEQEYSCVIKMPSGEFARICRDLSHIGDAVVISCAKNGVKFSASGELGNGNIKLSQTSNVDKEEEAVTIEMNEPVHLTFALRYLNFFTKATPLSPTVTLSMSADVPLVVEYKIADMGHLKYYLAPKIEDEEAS
UniProt Q7LBC6: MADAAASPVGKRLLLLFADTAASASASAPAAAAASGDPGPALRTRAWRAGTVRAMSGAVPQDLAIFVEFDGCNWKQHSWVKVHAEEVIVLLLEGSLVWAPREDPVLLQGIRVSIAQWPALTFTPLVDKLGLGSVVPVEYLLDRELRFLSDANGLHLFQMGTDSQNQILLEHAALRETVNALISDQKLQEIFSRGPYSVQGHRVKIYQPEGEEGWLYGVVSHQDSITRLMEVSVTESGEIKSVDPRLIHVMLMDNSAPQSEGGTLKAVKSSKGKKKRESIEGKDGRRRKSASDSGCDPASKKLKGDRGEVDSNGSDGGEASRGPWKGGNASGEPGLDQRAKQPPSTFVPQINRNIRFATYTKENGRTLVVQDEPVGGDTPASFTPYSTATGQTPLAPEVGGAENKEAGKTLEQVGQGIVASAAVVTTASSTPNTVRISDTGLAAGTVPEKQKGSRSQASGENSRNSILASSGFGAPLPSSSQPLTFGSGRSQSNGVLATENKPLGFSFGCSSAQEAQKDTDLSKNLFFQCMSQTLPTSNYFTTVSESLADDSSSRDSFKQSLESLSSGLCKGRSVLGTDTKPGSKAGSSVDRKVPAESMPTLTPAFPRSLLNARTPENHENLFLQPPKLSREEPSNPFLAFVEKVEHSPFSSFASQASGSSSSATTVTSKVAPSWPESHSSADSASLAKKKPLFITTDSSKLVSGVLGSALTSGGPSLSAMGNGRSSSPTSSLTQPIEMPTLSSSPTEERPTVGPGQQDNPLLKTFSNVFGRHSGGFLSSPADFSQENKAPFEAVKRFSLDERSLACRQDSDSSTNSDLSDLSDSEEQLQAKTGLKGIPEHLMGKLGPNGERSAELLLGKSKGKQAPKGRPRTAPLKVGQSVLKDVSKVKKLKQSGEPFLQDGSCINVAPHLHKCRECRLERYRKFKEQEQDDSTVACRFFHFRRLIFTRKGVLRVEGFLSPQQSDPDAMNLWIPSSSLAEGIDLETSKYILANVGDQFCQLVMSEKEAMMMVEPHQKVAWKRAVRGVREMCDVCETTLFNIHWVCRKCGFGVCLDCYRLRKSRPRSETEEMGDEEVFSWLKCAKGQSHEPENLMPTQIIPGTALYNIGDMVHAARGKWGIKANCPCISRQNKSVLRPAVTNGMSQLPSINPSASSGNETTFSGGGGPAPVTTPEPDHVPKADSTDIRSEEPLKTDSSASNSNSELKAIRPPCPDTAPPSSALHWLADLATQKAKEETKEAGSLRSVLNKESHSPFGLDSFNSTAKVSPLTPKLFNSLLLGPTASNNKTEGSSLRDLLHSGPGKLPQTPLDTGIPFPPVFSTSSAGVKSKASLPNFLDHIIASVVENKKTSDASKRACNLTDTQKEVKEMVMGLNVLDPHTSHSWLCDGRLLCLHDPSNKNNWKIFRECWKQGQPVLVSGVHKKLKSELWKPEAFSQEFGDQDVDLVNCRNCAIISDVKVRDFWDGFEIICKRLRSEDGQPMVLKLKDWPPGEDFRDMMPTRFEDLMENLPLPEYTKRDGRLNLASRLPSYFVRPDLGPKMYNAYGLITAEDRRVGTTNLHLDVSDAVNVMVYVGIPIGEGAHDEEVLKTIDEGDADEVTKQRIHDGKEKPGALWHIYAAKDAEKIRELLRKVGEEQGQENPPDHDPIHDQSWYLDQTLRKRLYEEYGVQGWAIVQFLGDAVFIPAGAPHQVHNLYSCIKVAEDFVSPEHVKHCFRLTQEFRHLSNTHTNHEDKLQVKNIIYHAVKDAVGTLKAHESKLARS

Experiment [1] addresses Flap endonuclease 1 (FEN1) (human (endogenous in HeLa)) (UniProt P39748). The experiment is described as follows: co-IP; endogenous FEN1 immunoprecipitated (anti-FEN1, Genetex) from mimosine-synchronized HeLa cells released into S phase for 0, 4 or 8 h; IP buffer 50 mM HEPES-KOH pH 7.4, 150 mM NaCl, 0.1% NP40, 10% glycerol; immuno-blot for JMJD1B.
Experiment [2] addresses purified recombinant FEN1 (UniProt P39748). Nature of the experiment: pull-down; BSA, FEN1 or JMJD1B immobilized on cyanogen-bromide-activated Sepharose beads; 100 ng purified JMJD1B on FEN1 beads or 40 ng purified FEN1 on JMJD1B beads; 50 mM Hepes, 100 mM NaCl, 1% BSA, 1 mM DTT, 10% glycerol, pH 7.5, 4°C overnight; immuno-blot; both purified.
For experiment [3], the target named is proliferating cell nuclear antigen (PCNA), in MEFs (mouse (endogenous in MEFs)) (UniProt P17918). The experiment is described as follows: proximity ligation; Duolink PLA on endogenous proteins in fixed Jmjd1b-/- MEFs; foci per nucleus.

No constants are given. Whether binding was seen depends on the method and setting. For part of these data: In cells and extracts the contact can be indirect. Some results given as binding are weak or reduced against the parent protein; the word gives no strength.

Take “JMJD1B (also known as KDM3B) (from UniProt Q7LBC6 1-1761) (enzyme)”: the binding result in experiment [1] was “binds”.

With “purified recombinant JMJD1B (from UniProt Q7LBC6 1-1761) (enzyme)”, the binding entry in experiment [2] is “binds”.

B1: DNA ligase 1 (LIG1), in MEFs (enzyme, mouse (endogenous in MEFs), UniProt P37913 1-916, looked up)
chain: MQRSIMSFFQPTKEGKAKKPEKETPSSIREKEPPPKVALKERNQVVPESDSPVKRTGRKVAQVLSCEGEDEDEAPGTPKVQKPVSDSEQSSPPSPDTCPENSPVFNCSSPMDISPSGFPKRRTARKQLPKRTIQDTLEEQNEDKTKTAKKRKKEEETPKESLAEAEDIKQKEEKEGDQLIVPSEPTKSPESVTLTKTENIPVCKAGVKLKPQEEEQSKPPARGAKTLSSFFTPRKPAVKTEVKQEESGTLRKEETKGTLDPANYNPSKNNYHPIEDACWKHGQKVPFLAVARTFEKIEEVSARLKMVETLSNLLRSVVALSPPDLLPVLYLSLNRLGPPQQGLELGVGDGVLLKAVAQATGRQLESIRAEVAEKGDVGLVAENSRSTQRLMLPPPPLTISGVFTKFCDIARLTGSASMAKKMDIIKGLFVACRHSEARYIARSLSGRLRLGLAEQSVLAALAQAVSLTPPGQEFPTVVVDAGKGKTAEARKMWLEEQGMILKQTFCEVPDLDRIIPVLLEHGLERLPEHCKLSPGVPLKPMLAHPTRGVSEVLKRFEEVDFTCEYKYDGQRAQIHVLEGGEVKIFSRNQEDNTGKYPDIISRIPKIKHPSVTSFILDTEAVAWDREKKQIQPFQVLTTRKRKEVDASEIQVQVCLYAFDLIYLNGESLVRQPLSRRRQLLRENFVETEGEFVFTTSLDTKDTEQIAEFLEQSVKDSCEGLMVKTLDVDATYEIAKRSHNWLKLKKDYLDGVGDTLDLVVIGAYLGRGKRAGRYGGFLLAAYDEESEELQAICKLGTGFSDEELEEHHQSLQALVLPTPRPYVRIDGAVAPDHWLDPSIVWEVKCADLSLSPIYPAARGLVDKEKGISLRFPRFIRVRKDKQPEQATTSNQVASLYRKQSQIQNQQSSDLDSDVEDY
notes: DNA ligase 1, mouse, endogenous in MEFs; source: endogenous, mouse embryonic fibroblasts (fixed cells)
Regarding B1, the binding result in experiment [3] was “binds”.
